## Library screen at single concentrations

Values are the deposited “Percent Effect”, in %. The record does not define 0% and 100%; most values in the screen are far below 50% and negative numbers occur (in some assays of this library far below -100). This is an unselected part of the compounds tested. Two or more numbers in one place are separate tests of the same structure; such repeats can differ widely.

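Cell assay of Leishmania donovani living inside macrophages; the read-out is not stated. Tested at 30 µM. Direction is inferred from retests: higher values go with stronger inhibition. Of about 69,000 compounds tested this way, about 1,000 (1.5%) reached 50% or more in at least one test.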

structure	percent effect
O=C(NC1CCCCC1)c1ccc(COCC(F)(F)F)o1	33.52
Cc1ccc2c(c1)CCC21CCN(CCO)CC1	18.23
CSCC[C@@H](CO)n1ccnc1-c1ccc(C)o1	5.403
CC(C)(O)CN1CCN(C(=O)COC2CCCC2)CC1	16.35
Cc1cnn(C2CCCN(C(=O)CCc3cnn(C)c3)C2)c1 (stereo not given)	15.09
CCc1nc(Nc2ccc(C(=O)NC)cc2)c2c(n1)c(C)nn2CC	21.93
CCC(CO)N(Cc1ccco1)C(=O)c1cccnc1NC (stereo not given)	14.47
CC(=O)NCc1ccc(S(=O)(=O)NC(=O)c2ccc3c(c2)COC3)s1	4.518
CSc1nsc(NC(=O)c2cc(C3CC3)nn2C)n1	25.31
O=C(O)C(F)(F)F.O=C(O)C(F)(F)F.[H][C@@]12C[C@H](C(=O)N(C)C)CN(Cc3ccc4ccccc4n3)[C@]1([H])CCO2	26.07
O=C(CC(F)(F)F)N1CCc2onc(Cn3cccn3)c2C1	26.17
CCc1nc2c(c(NC3CC3)n1)CCN(C(=O)N1CCN(C)CC1)CC2	19.3
Cc1ncc(CNC(=O)CCOc2ccccc2)c(C2CCCN2C)n1 (stereo not given)	-5.646
CN(C)c1nccc(C2CCCCN2Cc2cnn3cccnc23)n1 (stereo not given)	15.49
CCOc1nc2cnccc2n(CC(=O)NCc2ccc(C)cc2)c1=O	8.142
COc1ccc(Cl)cc1S(=O)(=O)N(C)CC(=O)Nc1ccccc1	40.17
Cc1cc(N2CCN(C3CCSCC3)CC2)n2nc(C)c(C)c2n1	-13.26
Cc1nc(N2CCN(C(=O)C(C)(C)C)CC2)cc(-n2cnc(C)c2C)n1	14.85
COc1cccc2ccc(CN3CCN(c4ncccc4C)CC3)nc12	19.2
COc1ccc(C(C)Nc2ncc(C(N)=O)cc2Cl)cc1OC (stereo not given)	16.92
Cc1nn(C)c(=O)c2nn(-c3ccc(F)cc3)c(C)c12	-16.73
CCOC(C)C(=O)NCCNS(C)(=O)=O (stereo not given)	50.09
CNC(=O)c1cnc(/C=C/c2ccc(OC)c(O)c2)s1	11.38
CCCOC(=O)C(C)Sc1nnnn1C1CCOCC1 (stereo not given)	19.96
COc1cc(COCC2CCN(Cc3ccccn3)CC2)cc(OC)c1.O=C(O)C(=O)O	-0.1507
Cn1nc(CNC(=O)c2ccc(OC(F)(F)F)cc2)c2c1CCOC2	5.282
O=C(NC1CCCN(CCCc2ccccc2)C1)c1ccc(Cl)s1 (stereo not given)	-24.02
CS(=O)(=O)N1CCOCC2(CCN(c3ccccn3)C2)C1.O=C(O)C(F)(F)F (stereo not given)	21.79
CC(C)n1cnc2ccc(NC(=O)CCCn3cccn3)cc2c1=O	23.43
Cn1cccc1C1CCCCCN1C(=O)c1ccc(NC2CC2)nc1 (stereo not given)	0.9256
CNC(=O)[C@@H](C1CCCCC1)N1CCC[C@H]1C(=O)N(C)CCN(C)C.Cl.Cl	-0.1708
CNc1cccc(C2CCCN(C(=O)Cc3ccccc3)C2)n1 (stereo not given)	9.246 and -7.896
CN(C)CCNC(=O)c1cc(-c2cnc(N3CCOCC3)nc2)cn1C.O=C(O)C(F)(F)F	26.77
COc1ccc(C(=O)NCCCNc2ncccn2)c(OC)c1	21
COC(=O)C1CN(Cc2ccccc2C(C)(C)C#N)CCO1 (stereo not given)	41.11
Cc1cc(-c2nccs2)nc(C2CCN(Cc3ccc(F)cc3)CC2)n1.Cl	-17.14
c1cncc(CNc2ncnc3c2CCN(Cc2ccsc2)CC3)c1	15.75
Cc1nc(CN2C(=O)COC3(CCN(Cc4nccs4)CC3)C2C)cs1.O=C(O)C(F)(F)F (stereo not given)	21.52
COc1ncc(Cl)c(NCc2ccc(C(=O)N(C)C)cc2)n1	-25.98
CCn1c(CNC(=O)Nc2nc(C)c(C)o2)nc2ccccc21	-5.489
CCc1nc(CN(C)C(=O)NC(C)c2cccc(NC(C)=O)c2)cs1 (stereo not given)	1.526
Cc1ccc(-c2nc(CN3CCc4nn(C)c(=O)cc4C3)no2)cc1	24.93
O=C(NCc1ccco1)N1CCN(Cc2ccc3c(c2)CCO3)CC1	5.55
CCS(=O)(=O)N(C)CCCNC(=O)c1cc(Cl)cc2cccnc12	39.13 and 13.86
CS(=O)(=O)CCOCCNc1cncc(Br)c1	35.54
COc1ncc(-c2nccn2CCN(C)C)cn1	19.83
Cc1ccc(C(=O)NCCCNS(C)(=O)=O)cc1C	-7.091
Cn1cc(N2CCCC(NCc3cccc4c3OCCCO4)C2)cn1 (stereo not given)	37.64
CC(C)c1cc(N2CCC(N)CC2)n2nccc2n1	45.49
CCc1cc(N2CCC(Nc3ccc(Cl)cn3)CC2)ncn1	39.5
CC(=O)N1CCC12CCN(Cc1ccco1)CC2.O=C(O)C(F)(F)F	4.08
Cc1noc(CNC(=O)N2CCN(c3nc(C)c(C)s3)CC2)n1	0.7779
CC(c1nc(C2CC2)no1)N1CCN(CCOCC(F)(F)F)CC1 (stereo not given)	22.63
COc1cc(NC(=O)CCn2nc(-c3cccs3)oc2=O)cc(OC)c1	36.76
CC1CCN(C(=O)C(C)N2CCc3[nH]nc(C(F)(F)F)c3C2)CC1 (stereo not given)	13.32
COCCC(Cc1cccc(Br)c1)C(=O)NCC(N)=O (stereo not given)	-14.84
[H][C@@]12COC[C@@H](Cc3nnc(C)o3)[C@]1([H])CN(c1cc(OC)ncn1)C2	12.02
CS(=O)(=O)N1CCC(CNC(=O)C2CCC2)CC1	20.8
O=C(O)c1ccc(CN2CCC(c3ccnc4ccnn34)CC2)cc1	5.844
[H][C@@]12C[C@H](c3nnc(C)o3)CN(S(=O)(=O)C3CC3)[C@]1([H])CCO2	8.889
Cc1ccc([C@@H]2CN(C(=O)c3cc(C)n[nH]3)C[C@H]2NC(=O)C2CC2)cc1	1.342
O=C(c1cnc(NCc2sccc2Br)c(Cl)c1)N1CCCCC1	-9.106
CN(CCCC1CCCC1)C(=O)c1cc(CN2CCC(O)CC2)on1	7.046
Cc1ncnc2c1CCN(c1ccccn1)CC2.O=C(O)C(F)(F)F	12.18
N#Cc1ccc(OCCN2CCc3c(ncn3C3CC3)C2)cc1	31.02
Cl.O=C(Cn1c(-c2ccco2)cc2cccnc21)N1CCCC1	-12.3
Cc1cc(C)n(CC2CCCN2C(=O)c2cccn3ccnc23)n1 (stereo not given)	-0.1322

8 of the entries, repeated:

O=C(c1cnc(NCc2sccc2Br)c(Cl)c1)N1CCCCC1 read -9.106%.
COc1cc(COCC2CCN(Cc3ccccn3)CC2)cc(OC)c1.O=C(O)C(=O)O read -0.1507%.
CCc1cc(N2CCC(Nc3ccc(Cl)cn3)CC2)ncn1 read 39.5%.
CNc1cccc(C2CCCN(C(=O)Cc3ccccc3)C2)n1 (stereo not given) read 9.246% and -7.896%.
COC(=O)C1CN(Cc2ccccc2C(C)(C)C#N)CCO1 (stereo not given) read 41.11%.
CSc1nsc(NC(=O)c2cc(C3CC3)nn2C)n1 read 25.31%.
CCc1nc(Nc2ccc(C(=O)NC)cc2)c2c(n1)c(C)nn2CC read 21.93%.
O=C(NC1CCCCC1)c1ccc(COCC(F)(F)F)o1 read 33.52%.

From ChEMBL document CHEMBL3988442, “University of Dundee, Small-Polar-MMV Screening Library” (2021).